Data as given in PubChem BioAssay AID686937 (Drosophila RNAi Screening Center, 2013).
Test: 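Genes whose loss weakens secretory pathway function in fly cells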 (primary screen). Cells: Drosophila S2 cells expressing secreted horseradish peroxidase. Knock-down reagent: long dsRNA against Drosophila genes. Timing: about 5.5 days (5 days dsRNA, then 12 h reporter induction). Challenge: reporter expression induced after 5 days of dsRNA, read 12 h later; inducer not stated. Measurement: 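Chemiluminescent measurement of peroxidase in the medium 12 h after reporter induction, following 5 days of dsRNA, given as a z-score per plate; higher means more secretion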. Reading the numbers: z-score: higher = more reporter secreted into medium.
The screen tested about 23,000 reagents; below is an unselected part of those with a known target gene and a result. 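Reduced-secretion tags in replicate 1 do not always agree with the z-scores; no criterion for assigning the tags was given.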 Not all columns of the deposit are shown. No sequences are given here. Not given: the amount of reagent.

CG17002 [DRSC04978]
- z-score, replicate 1: -0.43

alrm (astrocytic leucine-rich repeat molecule) [DRSC14436]
- z-score, replicate 1: 0

Ugt49C1 (UDP-glycosyltransferase family 49 member C1) [DRSC04252]
- z-score, replicate 1: 0.12

TAF1C-like [DRSC04073]
- z-score, replicate 1: 0.13

net [DRSC00309]
- z-score, replicate 1: 0.32

CG6398 [DRSC19992]
- z-score, replicate 1: 0.08

mas (masquerade) [DRSC08720]
- z-score, replicate 1: 0.42

CG8507 [DRSC16435]
- z-score, replicate 1: 0.31

CG8043 [DRSC16368]
- z-score, replicate 1: 0.31

CG13994 [DRSC02326]
- z-score, replicate 1: 0.21

RpL35A (Ribosomal protein L35A) [DRSC12302]
- z-score, replicate 1: -4.04
- phenotype, replicate 1: reduced secretion

CG13674 [DRSC10033]
- z-score, replicate 1: 0.44

CG32017 [DRSC17183]
- z-score, replicate 1: 0.28

CG14627 [DRSC18630]
- z-score, replicate 1: 0.31

tpr (tracheal-prostasin) [DRSC04468]
- z-score, replicate 1: 0.32

CG5397 [DRSC00683]
- z-score, replicate 1: 0.25

Doc2 (Dorsocross2) [DRSC22716]
- z-score, replicate 1: -0.03

Catsup (Catecholamines up) [DRSC03288]
- z-score, replicate 1: -1.02

her (hermaphrodite) [DRSC03543]
- z-score, replicate 1: -0.1

Hpr1 [DRSC12296]
- z-score, replicate 1: 0.14

CG13473 [DRSC10017]
- z-score, replicate 1: 0.41

Usp1 (Ubiquitin specific protease 1) [DRSC14155]
- z-score, replicate 1: 0.52

CG17959 [DRSC18142]
- z-score, replicate 1: 0.31

CG8188 [DRSC20090]
- z-score, replicate 1: 0.15

TotX (Turandot X) [DRSC22206]
- z-score, replicate 1: -0.27

Already shown: entries from further up.
RpL35A (Ribosomal protein L35A) [DRSC12302]
- z-score, replicate 1: -4.04
- phenotype, replicate 1: reduced secretion

CG13674 [DRSC10033]
- z-score, replicate 1: 0.44

CG32017 [DRSC17183]
- z-score, replicate 1: 0.28

CG14627 [DRSC18630]
- z-score, replicate 1: 0.31

tpr (tracheal-prostasin) [DRSC04468]
- z-score, replicate 1: 0.32

CG5397 [DRSC00683]
- z-score, replicate 1: 0.25

More records follow:
VhaPPA1-1 (Vacuolar H[+] ATPase PPA1 subunit 1) [DRSC16170]
- z-score, replicate 1: -1.03

Sfp53D (Seminal fluid protein 53D) [DRSC05625]
- z-score, replicate 1: -0.21

lectin-24Db [DRSC00553]
- z-score, replicate 1: 0.21

boi [DRSC18425]
- z-score, replicate 1: 0.18

boi [DRSC18598]
- z-score, replicate 1: 0.24

Nckx30C [DRSC02686]
- z-score, replicate 1: 0.14

Nckx30C [DRSC02687]
- z-score, replicate 1: 0.18

Nckx30C [DRSC02688]
- z-score, replicate 1: 0.67

Nckx30C [DRSC02689]
- z-score, replicate 1: 0.44

CG15185 [DRSC12565]
- z-score, replicate 1: 0.18

CG31445 [DRSC14443]
- z-score, replicate 1: 0.52

Ilk (Integrin linked kinase) [DRSC11868]
- z-score, replicate 1: -0.21

bumpel [DRSC16100]
- z-score, replicate 1: 0.3

CG5445 [DRSC19943]
- z-score, replicate 1: -0.1

Targ1 (Terminal ADP-ribose protein glycohydrolase 1) [DRSC11616]
- z-score, replicate 1: 0.13
